Laboratory results: PubChem BioAssay AID1159578 (Peter MacCallum Cancer Centre, 2015)
Purpose: 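siRNA pools altering how lymphatic endothelial cells close a scratch wound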 (primary screen). Cells: human lymphatic endothelial cells. Knock-down reagent: siRNA pool against human genes, 40 nM. Duration: 48 h after transfection. Detection: 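High-content imaging of dye-stained cells in a scratch assay measures filled wound area and nuclei per well; duplicate means given as ratio to mock and robust z-score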. Scale: migration robust z-score: higher = faster migration into the scratch; nuclei per well: higher = more cells in the well. Rule for the call: 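Migration changed when robust z exceeds 2 or falls below -2 and mean nuclei number is at least 3300; otherwise not called changed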. Calls: active = migration changed; inactive = no migration change, or too few cells.
The whole screen tested about 18,000 reagents; below is a part drawn at random. About 1,030 of all reagents (5.7%) were called active. 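Inactive calls also include pools with fewer than 3300 nuclei, whose migration was not assessed.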 The raw values are shown without normalisation. A number with no mark means an inactive call. The numbers tell different reagents against one gene apart. Not all columns of the deposit are shown.

| gene | reagent | migration robust z-score | nuclei per well, duplicate mean |
| --- | --- | --- | --- |
| NRG2 | 1 | -1.12 | 6394 |
| PALM | 1 | 0.55 | 6580 |
| PRR23E | 1 | -0.87 | 6747 |
| IFT57 | 1 | 0 | 6624 |
| CGREF1 | 1 | -1.52 | 5814 |
| UBE2D4 | 1 | 1.82 | 5220 |
| PTMS | 1 | 0.29 | 5954 |
| NDUFB3 | 1 | -3.69 | 2754 |
| USP44 | 1 | -0.11 | 5400 |
| RBFOX3 | 1 | 0.4 | 5914 |
| RBFOX3 | 2 | -1.51 | 5242 |
| SULT1C3 | 1 | -1.51 | 6070 |
| NKIRAS2 | 1 | 1.15 | 6328 |
| ACTBL2 | 1 | -2.52 (active) | 4240 |
| MAGEB4 | 1 | 1.4 | 5594 |
| ATAD3B | 1 | 1.34 | 5453 |
| C1S | 1 | -0.13 | 5688 |
| PHF2 | 1 | 1.24 | 6281 |
| LCORL | 1 | 0.44 | 4791 |
| SLC2A6 | 1 | 1.68 | 4713 |
| ZDHHC24 | 1 | -1.4 | 6186 |
| SH3BGRL3 | 1 | -0.66 | 4814 |
| B4GALNT3 | 1 | 0.94 | 6600 |
| DNMBP | 1 | 0.96 | 5958 |
| AATF | 1 | 0.03 | 6048 |
| TWSG1 | 1 | 1.29 | 6534 |
| RNPS1 | 1 | 0.39 | 4714 |
| ACAT1 | 1 | 0.42 | 4558 |
| NPIPB15 | 1 | -0.48 | 5818 |
| GPR37L1 | 1 | 1.35 | 4940 |
| POLI | 1 | -0.86 | 6984 |
| TEP1 | 1 | -1.74 | 4340 |
| CD81 | 1 | 0.34 | 5800 |
| CCDC125 | 1 | -1.19 | 5458 |
| ANKRD30A | 1 | 0.7 | 5392 |
| NEDD4L | 1 | 0.42 | 4242 |
| ZIM3 | 1 | 0 | 6208 |
| S100A3 | 1 | 0.26 | 5180 |
| RALYL | 1 | -0.01 | 6192 |

Continued, starting with the last 5 of the part before.
| gene | reagent | migration robust z-score | nuclei per well, duplicate mean |
| --- | --- | --- | --- |
| ANKRD30A | 1 | 0.7 | 5392 |
| NEDD4L | 1 | 0.42 | 4242 |
| ZIM3 | 1 | 0 | 6208 |
| S100A3 | 1 | 0.26 | 5180 |
| RALYL | 1 | -0.01 | 6192 |
| BCL11B | 1 | 0.62 | 5728 |
| LRRC3B | 1 | 0.52 | 6991 |
| ZNF485 | 1 | 0.43 | 6990 |
| SLC25A51 | 1 | 0.61 | 5322 |
| PIM1 | 1 | -0.03 | 4580 |
| MAGEA9 | 1 | -1.4 | 6017 |
| CD1B | 1 | -1.15 | 3864 |
| MFSD6L | 1 | 0.44 | 5720 |
| NR3C2 | 1 | 1.25 | 6651 |
| CLPP | 1 | -0.5 | 4684 |
| BMP6 | 1 | -0.06 | 7102 |
| SERINC2 | 1 | 1.31 | 5337 |
| OR52K2 | 1 | -0.18 | 6022 |
| LRRC71 | 1 | 0.22 | 5878 |
| NTHL1 | 1 | -0.11 | 6192 |
| MMP2 | 1 | 0.16 | 5752 |
| KRTAP9-3 | 1 | -0.52 | 5416 |
| FAM168A | 1 | -0.36 | 3826 |
| KIF5A | 1 | 0.83 | 5266 |
| CHD8 | 1 | 0.42 | 4418 |
| NTN3 | 1 | -1.97 | 4650 |
| FOXO1 | 1 | -0.31 | 6816 |
| XIRP1 | 1 | 1.08 | 5776 |
| NEK3 | 1 | -3.81 | 2828 |
| CLMP | 1 | 1.01 | 6560 |
| TNFAIP2 | 1 | 1.12 | 4893 |
| IGSF1 | 1 | -0.02 | 5977 |
| UFD1 | 1 | 0.65 | 5116 |
| DIABLO | 1 | -0.68 | 4766 |
| ICAM3 | 1 | -0.4 | 5924 |
| SYCN | 1 | 1.66 | 6458 |
| CYP46A1 | 1 | -0.36 | 4672 |
| ELMO1 | 1 | -1.13 | 4950 |
| RNASE12 | 1 | 0.08 | 5214 |
